The exact form of at least one protein or probe is not confirmed. At least one result comes from cells or an extract, where the contact may be indirect. For some assays here: Tags and fusion partners may be left off the protein sequences shown.
Tests used:
[1] = biological target: T1, ORC2 (endogenous) (Homo sapiens) (UniProt Q13416); assay: binding assay; settings: ChIP in G1/S-arrested PEL cells and transfected 293 cells; protein in cells
T1 sequence (looked up, limits assumed): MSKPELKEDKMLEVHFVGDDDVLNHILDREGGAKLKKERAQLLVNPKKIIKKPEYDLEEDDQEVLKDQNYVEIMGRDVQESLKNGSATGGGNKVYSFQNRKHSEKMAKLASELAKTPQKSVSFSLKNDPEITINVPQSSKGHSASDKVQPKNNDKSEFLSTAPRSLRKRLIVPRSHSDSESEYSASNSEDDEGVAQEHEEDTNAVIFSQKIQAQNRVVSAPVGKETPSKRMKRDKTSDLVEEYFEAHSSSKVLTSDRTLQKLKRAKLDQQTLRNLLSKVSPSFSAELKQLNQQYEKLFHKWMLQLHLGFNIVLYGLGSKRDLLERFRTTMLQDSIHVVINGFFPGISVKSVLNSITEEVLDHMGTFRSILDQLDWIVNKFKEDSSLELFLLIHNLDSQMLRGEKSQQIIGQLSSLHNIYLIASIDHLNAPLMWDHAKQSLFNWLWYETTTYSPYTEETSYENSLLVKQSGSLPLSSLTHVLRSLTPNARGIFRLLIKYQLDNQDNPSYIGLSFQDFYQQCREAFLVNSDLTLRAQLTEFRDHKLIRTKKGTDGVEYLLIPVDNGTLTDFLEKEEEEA

By UniProt entry, the sequences of proteins in these tests, tags left out. Residues count along the entry.
UniProt P25205, 2-808: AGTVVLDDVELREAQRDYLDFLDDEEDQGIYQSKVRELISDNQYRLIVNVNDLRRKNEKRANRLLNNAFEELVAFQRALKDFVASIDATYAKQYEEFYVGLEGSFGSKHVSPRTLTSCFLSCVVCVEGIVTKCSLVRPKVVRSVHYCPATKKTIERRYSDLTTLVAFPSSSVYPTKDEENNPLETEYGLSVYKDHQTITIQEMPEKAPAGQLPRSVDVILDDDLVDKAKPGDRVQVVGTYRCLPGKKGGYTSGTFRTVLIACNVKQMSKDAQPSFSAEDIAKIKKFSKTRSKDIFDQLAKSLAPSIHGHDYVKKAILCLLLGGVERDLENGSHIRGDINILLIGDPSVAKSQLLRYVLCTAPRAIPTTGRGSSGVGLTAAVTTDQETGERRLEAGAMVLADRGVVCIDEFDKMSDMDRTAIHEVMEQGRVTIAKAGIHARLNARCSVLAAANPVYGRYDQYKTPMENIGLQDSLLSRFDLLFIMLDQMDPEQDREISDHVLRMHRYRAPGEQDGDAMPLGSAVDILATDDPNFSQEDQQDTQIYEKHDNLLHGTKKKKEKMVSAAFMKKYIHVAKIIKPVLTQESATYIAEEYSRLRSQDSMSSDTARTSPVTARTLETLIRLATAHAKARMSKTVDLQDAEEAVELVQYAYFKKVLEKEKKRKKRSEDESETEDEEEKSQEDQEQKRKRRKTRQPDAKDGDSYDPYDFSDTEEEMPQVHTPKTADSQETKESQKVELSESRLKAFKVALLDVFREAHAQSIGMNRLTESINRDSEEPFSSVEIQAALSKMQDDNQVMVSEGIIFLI

[2] = biological target: MCM3 (endogenous) (Homo sapiens) (UniProt P25205); assay: binding assay; settings: ChIP in G1/S-arrested PEL cells and transfected 293 cells; protein in cells

GGATCCCGGCGCGCCACCCTCCCCGGCAACAACCTGTTGCCATGTATGGCGATTTGTATCAGTCACAAGCACACAACCCCTGCTAGTATTAATGGTGTTTAAAACGTTCTACACGTACGGCGGACCGCATCCGTCGCAAGCACGCGCATATAACCCCCAAATGCACCATGATGAGAAGCACAGCCACGCGTCAAAAAACTTTAAAAACATCGTTATCCAATATCATTAAAAACCACACCGAAATTTACACAGGTAGCACGTCACCGTGTTAGTGTCACCCACTGTACACAAGGCGTGTCGTATATGTAGTATAGGTATTTGATGAGGCGGAAGCATATCCCGCTTCCAGCGAACGGAAATAAGAATCATCCGTTCCAGCATTTATTCAAAGAGGGCACAGAGGATTCACATTGTTTAGAGAGAGTTTTTCTTAGTCACCATTCCATACTTGGGCAGTATTGGCCTACGATTTGGGCGACGTTTCAGGCTGGTCTATTCTCCGTCCACTTTTCCCCGGCTATTCTGTCCCAGCATAGGCTCTTGAAATAAACAATGTTTACCGAGTAAAAGGTTCCACTCACCCTCATTTGTCGTTGCACCCATCCCCCCTTTGCTTAATCACCCGAAAACTAGAGGACACGGATGGAAAACATATCGCACGCGGGTTGTTTGAAAGTCAACAGCTACTTGTTTTTAATGAGGACAGATTTGGGCACAGGCCAGAGGGTAAAGCCCTACGTGTGCGCGGGGGGGGGGGTGTATACGCTGCGAAAACCTGCACGGTGCATAACACCCAGGGCGTCACGTCACATATCTCTGTGCACCCAAGTGGTTGT (double strand) [AT-rich region of G fragment]
binding result [1]: binds | binding result [2]: binds

From US20090221468
